{"source": "the supplement of paper PMC10373366", "key": {"A2780": {"tested_on": "A2780", "experiment": "cell growth inhibition ratio vs untreated control (CCK8); higher = stronger inhibition of cell viability", "settings": "10 µM; 48 h", "method": "(§1)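 Natural product library (Topscience) screened at 10 µM final concentration for 48 h on ovarian cancer A2780 cells and patient-derived ovarian cancer cells (PDC) in 96-well plates; viability read by CCK8 and reported as inhibition ratio (%) relative to untreated control. Single-dose primary screen.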"}, "[1]": {"tested_on": "patient-derived ovarian cancer cells (PDC)", "experiment": "cell growth inhibition ratio vs untreated control (CCK8); higher = stronger inhibition of cell viability", "settings": "10 µM; 48 h", "method": "as §1"}}, "note": "Counter-ions that a name gives are not always drawn. The list shows a part of the results. Most values come without repeats; read them as rough."}
{"smiles": "C[C@@H]1O[C@@H](OC[C@H]2O[C@@H](Oc3cc(O)c4c(=O)cc(-c5ccc(O)cc5)oc4c3)[C@H](O[C@@H]3O[C@@H](C)[C@H](O)[C@@H](O)[C@H]3O)[C@@H](O)[C@@H]2O)[C@H](O)[C@H](O)[C@H]1O", "note": "[Ligustroflavone]", "values": [{"measurement": "cell growth inhibition ratio", "setting": "A2780", "value": 5.92, "unit": "%"}, {"measurement": "cell growth inhibition ratio", "setting": "[1]", "value": -1.58, "unit": "%"}]}
{"smiles": "C=C1CC[C@@H]2[C@](C)(CO)[C@H](O)CC[C@@]2(C)[C@@H]1C/C=C1/C(=O)OC[C@H]1O", "note": "[Andrographolide]", "values": [{"measurement": "cell growth inhibition ratio", "setting": "A2780", "value": 25.2, "unit": "%"}, {"measurement": "cell growth inhibition ratio", "setting": "[1]", "value": -18.1, "unit": "%"}]}
{"smiles": "C[C@H](CCC(=O)O)[C@H]1CC[C@H]2[C@@H]3CC[C@@H]4C[C@H](O)CC[C@]4(C)[C@H]3CC[C@]12C", "note": "[Lithocholic acid]", "values": [{"measurement": "cell growth inhibition ratio", "setting": "A2780", "value": 6.16, "unit": "%"}, {"measurement": "cell growth inhibition ratio", "setting": "[1]", "value": -15.4, "unit": "%"}]}
{"smiles": "COc1c(O)cc2oc3cc(O)c(CC=C(C)C)c(O)c3c(=O)c2c1CC=C(C)C", "note": "[Mangostin]", "values": [{"measurement": "cell growth inhibition ratio", "setting": "A2780", "value": 26.4, "unit": "%"}, {"measurement": "cell growth inhibition ratio", "setting": "[1]", "value": 6.2, "unit": "%"}]}
{"smiles": "CC(C)(O[C@@H]1O[C@H](CO)[C@@H](O)[C@H](O)[C@H]1O)[C@H]1Cc2cc3ccc(=O)oc3cc2O1", "note": "[Nodakenin]", "values": [{"measurement": "cell growth inhibition ratio", "setting": "A2780", "value": 7.78, "unit": "%"}, {"measurement": "cell growth inhibition ratio", "setting": "[1]", "value": 0.757, "unit": "%"}]}
{"smiles": "CC(C)(CO)[C@@H](O)C(=O)NCCC(=O)NCCSSCCNC(=O)CCNC(=O)[C@H](O)C(C)(C)CO", "note": "[D-Pantethine]", "values": [{"measurement": "cell growth inhibition ratio", "setting": "A2780", "value": 16.7, "unit": "%"}, {"measurement": "cell growth inhibition ratio", "setting": "[1]", "value": -1.68, "unit": "%"}]}
{"smiles": "CC[C@@H]1/C=C(\\C)C[C@H](C)C[C@H](OC)[C@H]2O[C@@](O)(C(=O)C(=O)N3CCCC[C@H]3C(=O)O[C@H](/C(C)=C/[C@@H]3CC[C@@H](O)[C@H](OC)C3)[C@H](C)[C@@H](O)CC1=O)[C@H](C)C[C@@H]2OC", "note": "[Ascomycin (FK520)]", "values": [{"measurement": "cell growth inhibition ratio", "setting": "A2780", "value": 84, "unit": "%"}, {"measurement": "cell growth inhibition ratio", "setting": "[1]", "value": 52.9, "unit": "%"}]}
{"smiles": "C=C[C@H]1CN2CC[C@H]1C[C@@H]2[C@@H](O)c1ccnc2ccc(OC)cc12", "note": "[Quinidine hydrochloride]", "values": [{"measurement": "cell growth inhibition ratio", "setting": "A2780", "value": 1.8, "unit": "%"}, {"measurement": "cell growth inhibition ratio", "setting": "[1]", "value": 5.09, "unit": "%"}]}
{"smiles": "O=C1C=C2C=C[C@@H](O)[C@H](O)[C@H]2O1", "note": "[griffonilide]", "values": [{"measurement": "cell growth inhibition ratio", "setting": "A2780", "value": 2.47, "unit": "%"}, {"measurement": "cell growth inhibition ratio", "setting": "[1]", "value": -18.1, "unit": "%"}]}
{"smiles": "CO[C@H]1C[C@H](O[C@H]2[C@H](C)O[C@@H](O[C@@H]3/C(C)=C/C[C@@H]4C[C@@H](C[C@]5(C=C[C@H](C)[C@@H](C6CCCCC6)O5)O4)OC(=O)[C@@H]4C=C(C)[C@@H](O)[C@H]5OC/C(=C\\C=C\\[C@@H]3C)[C@]54O)C[C@@H]2OC)O[C@@H](C)[C@@H]1O", "note": "[Doramectin]", "values": [{"measurement": "cell growth inhibition ratio", "setting": "A2780", "value": 6.82, "unit": "%"}, {"measurement": "cell growth inhibition ratio", "setting": "[1]", "value": -3.96, "unit": "%"}]}
{"smiles": "CC(C)=CCOc1c2ccoc2cc2oc(=O)ccc12", "note": "[Isoimperatorin]", "values": [{"measurement": "cell growth inhibition ratio", "setting": "A2780", "value": 8.55, "unit": "%"}, {"measurement": "cell growth inhibition ratio", "setting": "[1]", "value": 14.4, "unit": "%"}]}
{"smiles": "O=Cc1ccc(CO)o1", "note": "[5-Hydroxymethyl-2-furaldehyde]", "values": [{"measurement": "cell growth inhibition ratio", "setting": "A2780", "value": 4.02, "unit": "%"}, {"measurement": "cell growth inhibition ratio", "setting": "[1]", "value": -2.69, "unit": "%"}]}
{"smiles": "O=c1cc(-c2ccccc2)oc2cc(O)c(O)c(O)c12", "note": "[Baicalein]", "values": [{"measurement": "cell growth inhibition ratio", "setting": "A2780", "value": 41, "unit": "%"}, {"measurement": "cell growth inhibition ratio", "setting": "[1]", "value": -3.96, "unit": "%"}]}
{"smiles": "COC(=O)c1ccccc1O", "note": "[Methyl salicylate]", "values": [{"measurement": "cell growth inhibition ratio", "setting": "A2780", "value": 10.8, "unit": "%"}, {"measurement": "cell growth inhibition ratio", "setting": "[1]", "value": 4.69, "unit": "%"}]}
{"smiles": "N[C@@H](Cn1ccc(=O)c(O)c1)C(=O)O", "note": "[L-Mimosine]", "values": [{"measurement": "cell growth inhibition ratio", "setting": "A2780", "value": 9.62, "unit": "%"}, {"measurement": "cell growth inhibition ratio", "setting": "[1]", "value": -3.86, "unit": "%"}]}
{"smiles": "COc1ccc([C@@H]2CC(=O)c3c(O)cc(O[C@@H]4O[C@H](CO)[C@@H](O)[C@H](O)[C@H]4O[C@@H]4O[C@@H](C)[C@H](O)[C@@H](O)[C@H]4O)cc3O2)cc1O", "note": "[Neohesperidin]", "values": [{"measurement": "cell growth inhibition ratio", "setting": "A2780", "value": 0.643, "unit": "%"}, {"measurement": "cell growth inhibition ratio", "setting": "[1]", "value": -29.4, "unit": "%"}]}
{"smiles": "COc1cc(C=O)ccc1O", "note": "[Vanillin]", "values": [{"measurement": "cell growth inhibition ratio", "setting": "A2780", "value": -4.65, "unit": "%"}, {"measurement": "cell growth inhibition ratio", "setting": "[1]", "value": 8.89, "unit": "%"}]}
{"smiles": "CC1(C)C=Cc2c(ccc3c2OC[C@@H](c2ccc(O)cc2O)C3)O1", "note": "[Glabridin]", "values": [{"measurement": "cell growth inhibition ratio", "setting": "A2780", "value": 2.6, "unit": "%"}, {"measurement": "cell growth inhibition ratio", "setting": "[1]", "value": -1.68, "unit": "%"}]}
{"smiles": "C[C@H]1O[C@H](O[C@@H]2[C@@H](O)[C@H](OCCc3ccc(O)c(O)c3)O[C@H](CO[C@H]3OCC(O)(CO)[C@@H]3O)[C@H]2OC(=O)/C=C/c2ccc(O)c(O)c2)[C@@H](O)[C@@H](O)[C@@H]1O", "note": "(stereo partly drawn) [Forsythoside B]", "values": [{"measurement": "cell growth inhibition ratio", "setting": "A2780", "value": 5.08, "unit": "%"}, {"measurement": "cell growth inhibition ratio", "setting": "[1]", "value": -14.8, "unit": "%"}]}
{"smiles": "COc1ccc(-c2cc(=O)c3c(O)cc(O[C@@H]4O[C@H](CO[C@@H]5O[C@@H](C)[C@H](O)[C@@H](O)[C@H]5O)[C@@H](O)[C@H](O)[C@H]4O)cc3o2)cc1O", "note": "[Diosmin]", "values": [{"measurement": "cell growth inhibition ratio", "setting": "A2780", "value": 10.4, "unit": "%"}, {"measurement": "cell growth inhibition ratio", "setting": "[1]", "value": 0.451, "unit": "%"}]}
{"smiles": "Nc1nc(=O)c2c([nH]1)NCC(CNc1ccc(C(=O)N[C@@H](CCC(=O)O)C(=O)O)cc1)N2C=O", "note": "(stereo partly drawn) [Calcium folinate]", "values": [{"measurement": "cell growth inhibition ratio", "setting": "A2780", "value": 12.1, "unit": "%"}, {"measurement": "cell growth inhibition ratio", "setting": "[1]", "value": -2.92, "unit": "%"}]}
{"smiles": "COc1cc2ccc(=O)oc2cc1O[C@@H]1O[C@H](CO)[C@@H](O)[C@H](O)[C@H]1O", "note": "[scopolin]", "values": [{"measurement": "cell growth inhibition ratio", "setting": "A2780", "value": 18, "unit": "%"}, {"measurement": "cell growth inhibition ratio", "setting": "[1]", "value": 4.22, "unit": "%"}]}
{"smiles": "COc1cc(C[C@H](C)[C@H](C)Cc2ccc3c(c2)OCO3)ccc1O", "note": "[Anwuligan]", "values": [{"measurement": "cell growth inhibition ratio", "setting": "A2780", "value": 6.4, "unit": "%"}, {"measurement": "cell growth inhibition ratio", "setting": "[1]", "value": -3.46, "unit": "%"}]}
{"smiles": "C/C=C(/C)C(=O)O", "note": "[Angelic Acid]", "values": [{"measurement": "cell growth inhibition ratio", "setting": "A2780", "value": 5.31, "unit": "%"}, {"measurement": "cell growth inhibition ratio", "setting": "[1]", "value": -6.11, "unit": "%"}]}
